Assay results taken from patent US20260076988A1 (The Cleveland Clinic Foundation, priority 2019, published 2026).

System: Dck, Uck2, Cda and Cad
Experiment: F1339 cells: pyrimidine metabolism enzyme expression by QRT-PCR and Western blot
Type: cell-based, murine
Description: FIG. 2. […] F1339 p53-null cancer cells were seeded at D0 and treated with DMSO, deoxycytidine (DC, 0.5 μM), cytidine (CY, 5 μM), Dec (0.5 μM) and 5Aza (5 μM). […] Cell counts by automated counter, mean±SD. […] Gene expression by Q-PCR, median±interquartile range (IQR) (3 biological replicates), *p<0.05, **p<0.01. 2-sided Mann-Whitney test. […] Western blot.
RNA was extracted using Trizol reagent (Invitrogen) before the generation of complementary DNA using the iScript™ cDNA Synthesis Kit (Bio-rad). Quantitative PCR was run on StepOnePlus Real-Time PCR System (Applied Biosystems), using comparative Ct value method to quantify the expression of target genes in different samples. Gene expression was normalized to the housekeeping gene β-actin.
Tumor cells were lysed with RIPA lysis buffer and protein concentrations determined by BCA protein assay kit (Thermo Fisher Scientific). Samples with equal quantity (40 μg) of total protein were mixed with 4× loading buffer and 10× sample reducing reagent (Thermo Fisher Scientific), subjected to electrophoresis on a 12% (v/v) SDS-polyacrylamide gel, then transferred onto polyvinylidene fluoride membranes. After blocking with 5% dried skimmed milk, the membranes were washed three times and incubated with primary antibodies at 4° C. overnight. […]

## Nc1ncn([C@@H]2O[C@H](CO)[C@@H](O)[C@H]2O)c(=O)n1 [5-azacytidine]
  time of peak mRNA expression changes after drug exposure: ~72 h
  time of peak protein level changes after drug exposure: ~96 h
